{"sequences": {"note": "Protein sequences, listed by entry. Tags and fused reporters are not part of them. Residues count along the entry.", "UniProt P01899, residues 25-309": "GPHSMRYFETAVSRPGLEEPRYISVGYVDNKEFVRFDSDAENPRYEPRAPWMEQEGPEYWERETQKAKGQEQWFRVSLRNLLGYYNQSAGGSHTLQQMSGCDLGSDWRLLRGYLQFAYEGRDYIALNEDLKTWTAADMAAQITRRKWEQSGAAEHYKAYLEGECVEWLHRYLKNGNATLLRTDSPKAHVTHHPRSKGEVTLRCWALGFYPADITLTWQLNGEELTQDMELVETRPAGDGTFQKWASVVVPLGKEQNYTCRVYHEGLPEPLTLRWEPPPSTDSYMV", "UniProt P01901, residues 22-305": "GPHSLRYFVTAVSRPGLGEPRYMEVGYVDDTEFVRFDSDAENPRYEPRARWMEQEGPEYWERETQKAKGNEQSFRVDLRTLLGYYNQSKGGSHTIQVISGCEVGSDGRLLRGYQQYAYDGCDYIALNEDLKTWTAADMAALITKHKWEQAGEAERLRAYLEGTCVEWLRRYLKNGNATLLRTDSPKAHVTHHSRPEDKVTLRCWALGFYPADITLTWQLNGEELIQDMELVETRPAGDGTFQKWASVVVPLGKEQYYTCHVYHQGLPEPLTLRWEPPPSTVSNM"}, "source": "patent US20210315983A1", "key": {"[1]": {"target": "H2-Db (mouse) (UniProt P01899)", "assay": "HLA peptidomics: immunoaffinity purification of MHC from B2905 clone 2 cells, LC-MS/MS of eluted peptides"}, "[2]": {"target": "H2-Kb (mouse) (UniProt P01901)", "assay": "HLA peptidomics: immunoaffinity purification of MHC from B2905 clone 2 cells, LC-MS/MS of eluted peptides"}, "[3]": {"target": "H2-Kb (mouse) (UniProt P01901)", "assay": "HLA peptidomics: immunoaffinity purification of MHC from B16F10.9 parental, UVB irradiated and clone 1 cells, LC-MS/MS of eluted peptides"}, "[4]": {"target": "H2-Kb (mouse) (UniProt P01901)", "assay": "HLA peptidomics: immunoaffinity purification of MHC from B16F10.9 clone 1 cells, LC-MS/MS of eluted peptides"}}, "note": "These are yes or no findings as the source states them, for the method shown. Binding seen in cells or lysates may run through a third protein. Some entries that bind do so weakly or less than the wild type.", "data": [{"binder": "ASLTHVDSL", "note": "[… (SEQ ID NO: 4), neo-antigen encoded by IFI44L>S]", "values": [{"measurement": "binding", "setting": "[1]", "result": "binds"}]}, {"binder": "SAYEKLYSL", "note": "[… (SEQ ID NO: 5), neo-antigen encoded by RPTORH>Y]", "values": [{"measurement": "binding", "setting": "[2]", "result": "binds"}]}, {"binder": "ANFIFRQL", "note": "[ANFIFRQL (SEQ ID NO: 6), potential neo-antigen encoded by PaskS>N]", "values": [{"measurement": "binding", "setting": "[3]", "result": "binds"}]}, {"binder": "TIYVFPERL", "note": "[… (SEQ ID NO: 7), potential neo-antigen encoded by MlklS>F]", "values": [{"measurement": "binding", "setting": "[4]", "result": "binds"}]}]}
